The list shows a part of the results.
What was measured:
Experiment in all cases: glycan array binding signal (z-score within array); higher = stronger binding
Conditions in all cases: glycan notation: IUPAC condensed, linker removed
[1] = target: Fuc(a1-2)[GalNAc(a1-3)]Gal(b1-3)GlcNAc(b1-6)GalNAc
Summary of the method: (§1)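 Glycan array binding is given as a within-array Z-score, which can be read as non-binding when negative. The arrays, 3228 of them, came from the Consortium for Functional Glycomics database and were retained only where the protein sequence was available. Z-scores were averaged across arrays of the same protein sequence at different concentrations or buffers and across linkers.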

[2] = target: Fuc(a1-2)[GalNAc(a1-3)]Gal(b1-4)Glc
Summary of the method: as §1

[3] = target: Fuc(a1-2)[GalNAc(a1-3)]Gal(b1-4)GlcNAc
Summary of the method: as §1

[4] = target: Fuc(a1-2)[GalNAc(a1-3)]Gal(b1-4)GlcNAc(b1-2)Man
Summary of the method: as §1

[5] = target: Fuc(a1-2)[GalNAc(a1-3)]Gal(b1-4)GlcNAc(b1-2)Man(a1-3)[Fuc(a1-2)[GalNAc(a1-3)]Gal(b1-4)GlcNAc(b1-2)Man(a1-6)]Man(b1-4)GlcNAc(b1-4)GlcNAc
Summary of the method: as §1

[6] = target: Fuc(a1-2)[GalNAc(a1-3)]Gal(b1-4)GlcNAc(b1-2)Man(a1-3)[Fuc(a1-2)[GalNAc(a1-3)]Gal(b1-4)GlcNAc(b1-2)Man(a1-6)]Man(b1-4)GlcNAc(b1-4)[Fuc(a1-6)]GlcNAc
Summary of the method: as §1

[7] = target: Fuc(a1-2)[GalNAc(a1-3)]Gal(b1-4)GlcNAc(b1-3)Gal(b1-4)GlcNAc
Summary of the method: as §1

[8] = target: Fuc(a1-2)[GalNAc(a1-3)]Gal(b1-4)GlcNAc(b1-3)Gal(b1-4)GlcNAc(b1-3)Gal(b1-4)GlcNAc
Summary of the method: as §1

[9] = target: Fuc(a1-2)[GalNAc(a1-3)]Gal(b1-4)GlcNAc(b1-3)GalNAc
Summary of the method: as §1

[10] = target: Fuc(a1-2)[GalNAc(a1-3)]Gal(b1-4)GlcNAc(b1-3)[Fuc(a1-2)[GalNAc(a1-3)]Gal(b1-4)GlcNAc(b1-6)]GalNAc
Summary of the method: as §1

[11] = target: Fuc(a1-2)[GalNAc(a1-3)]Gal(b1-4)GlcNAc(b1-6)GalNAc
Summary of the method: as §1

[12] = target: Fuc(a1-2)[GalNAc(a1-3)]Gal(b1-4)[Fuc(a1-3)]GlcNAc
Summary of the method: as §1

[13] = target: Fuc(a1-2)[GalNAc(a1-3)]Gal(b1-4)[Fuc(a1-3)]GlcNAc(b1-3)GalNAc
Summary of the method: as §1

[14] = target: Fuc(a1-2)[GalNAc(a1-4)]Gal(b1-4)GlcNAc
Summary of the method: as §1

[15] = target: Fuc(a1-2)[GalNAc(b1-3)]Gal
Summary of the method: as §1

[16] = target: Fuc(a1-3)GlcNAc
Summary of the method: as §1

[17] = target: Fuc(a1-3)[Gal(b1-4)]Glc6S
Summary of the method: as §1

[18] = target: Fuc(a1-3)[Gal(b1-4)]GlcNAc
Summary of the method: as §1

[19] = target: Fuc(a1-3)[Gal(b1-4)]GlcNAc(b1-2)Man
Summary of the method: as §1

[20] = target: Fuc(a1-3)[Gal(b1-4)]GlcNAc(b1-2)Man(a1-3)[Fuc(a1-3)[Gal(b1-4)]GlcNAc(b1-2)Man(a1-6)]Man(b1-4)GlcNAc(b1-4)GlcNAc
Summary of the method: as §1

[21] = target: Fuc(a1-3)[Gal(b1-4)]GlcNAc(b1-2)Man(a1-3)[Fuc(a1-3)[Gal(b1-4)]GlcNAc(b1-2)Man(a1-6)]Man(b1-4)GlcNAc(b1-4)[Fuc(a1-6)]GlcNAc
Summary of the method: as §1

[22] = target: Fuc(a1-3)[Gal(b1-4)]GlcNAc(b1-3)Gal(b1-3)[Fuc(a1-4)]GlcNAc
Summary of the method: as §1

[23] = target: Fuc(a1-3)[Gal(b1-4)]GlcNAc(b1-3)Gal(b1-4)[Fuc(a1-3)]GlcNAc
Summary of the method: as §1

[24] = target: Fuc(a1-3)[Gal(b1-4)]GlcNAc(b1-3)Gal(b1-4)[Fuc(a1-3)]GlcNAc(b1-3)Gal(b1-4)[Fuc(a1-3)]GlcNAc
Summary of the method: as §1

[25] = target: Fuc(a1-3)[Gal(b1-4)]GlcNAc(b1-3)GalNAc
Summary of the method: as §1

[26] = target: Fuc(a1-3)[Gal(b1-4)]GlcNAc(b1-6)GalNAc
Summary of the method: as §1

[27] = target: Fuc(a1-3)[Gal(b1-4)]GlcNAc(b1-6)[Gal(b1-3)GlcNAc(b1-3)]Gal(b1-4)Glc
Summary of the method: as §1

[28] = target: Fuc(a1-3)[Gal(b1-4)]GlcNAc6S
Summary of the method: as §1

[29] = target: Fuc(a1-3)[Gal3S(b1-4)]Glc
Summary of the method: as §1

[30] = target: Fuc(a1-3)[Gal3S(b1-4)]GlcNAc
Summary of the method: as §1

[31] = target: Fuc(a1-3)[Gal3S(b1-4)]GlcNAc6S
Summary of the method: as §1

[32] = target: Fuc(a1-3)[GalNAc(b1-4)]GlcNAc
Summary of the method: as §1

[33] = target: Fuc(a1-3)[GalNAc(b1-4)]GlcNAc6S
Summary of the method: as §1

[34] = target: Fuc(a1-4)GlcNAc
Summary of the method: as §1

[35] = target: Fuc(b1-3)GlcNAc
Summary of the method: as §1

[36] = target: Gal(a1-2)Gal
Summary of the method: as §1

[37] = target: Gal(a1-3)Gal
Summary of the method: as §1

B1: PX9961K-bvu-480-28-480 (Bacteroides vulgatus) (protein)
chain: NKIPTTMAFRTVTDVDNAVNGLYDLMSGSGYYGAAMFAYGDMKGDDMQSSEESGVCNTCYMFNHRPNSLNAGSLWGRPFYILREAWNILNAIAEGKIESGDEKKLNALKGETMAVIALCQFDLTRCFGYPYTKDKGASLGAPLIDHLVGTYENPPRSTVAQAYDFIIETLEEAVTLMSEEKNNGRMNKYAARALLARIYLYHDDNRKAFDLADQLIKDADTSGSYALYPHEKYVAAWSVEAKFGSESFFEIANSVDDTPGRDSWGYLLNWYGYQKGFVTQKYAEQMLADPGDVRGHLLEENKYAGKTVWWLYKLRGTDLKTAPLECNNVVLRLSEVYLIAAEAGCKLGGDAAVQGLGYLNEIVKRGNPDNEVTMADYTLDRVLDERSKELVGEGHRFFDLLRNGKTIVRKGGYHLPSVDEEVDWDFYKCVLPIPEDQFIFSPEMEQNPGYPKN
[1]
  glycan array binding signal (z-score): 0.095
[2]
  glycan array binding signal (z-score): 1.01
[3]
  glycan array binding signal (z-score): -0.06
[4]
  glycan array binding signal (z-score): -0.109
[5]
  glycan array binding signal (z-score): -0.557
[6]
  glycan array binding signal (z-score): 0.01
[7]
  glycan array binding signal (z-score): 0.284
[8]
  glycan array binding signal (z-score): -0.442
[9]
  glycan array binding signal (z-score): 0.023
[10]
  glycan array binding signal (z-score): -0.533
[11]
  glycan array binding signal (z-score): -0.293
[12]
  glycan array binding signal (z-score): 0.123
[13]
  glycan array binding signal (z-score): -0.283
[14]
  glycan array binding signal (z-score): 0.086
[15]
  glycan array binding signal (z-score): -0.496
[16]
  glycan array binding signal (z-score): -0.091
[17]
  glycan array binding signal (z-score): 0.583
[18]
  glycan array binding signal (z-score): 0.676
[19]
  glycan array binding signal (z-score): -0.349
[20]
  glycan array binding signal (z-score): 0.232
[21]
  glycan array binding signal (z-score): -0.345
[22]
  glycan array binding signal (z-score): -0.35
[23]
  glycan array binding signal (z-score): 0.387
[24]
  glycan array binding signal (z-score): 0.348
[25]
  glycan array binding signal (z-score): 0.085
[26]
  glycan array binding signal (z-score): 0.711
[27]
  glycan array binding signal (z-score): -0.222
[28]
  glycan array binding signal (z-score): 0.539
[29]
  glycan array binding signal (z-score): 0.709
[30]
  glycan array binding signal (z-score): -0.241
[31]
  glycan array binding signal (z-score): -0.517
[32]
  glycan array binding signal (z-score): 0.307
[33]
  glycan array binding signal (z-score): -0.604
[34]
  glycan array binding signal (z-score): -0.743
[35]
  glycan array binding signal (z-score): -0.16
[36]
  glycan array binding signal (z-score): 0.018
[37]
  glycan array binding signal (z-score): -0.487

From the supplement of paper PMC8728848
